Test results published in paper PMC4694870.
Results are given in words; binding and its absence hold for the method and conditions named. Binding seen in cells or lysates may run through a third protein. Some entries that bind do so weakly or less than the wild type. Tags and fused reporters may be left off the sequences shown.

Sequences of proteins named here, by UniProt entry; tags and fusion partners are left off. A change or cut given only in a name is not applied to a line headed by its entry. Residues count along the entry.
UniProt Q00987: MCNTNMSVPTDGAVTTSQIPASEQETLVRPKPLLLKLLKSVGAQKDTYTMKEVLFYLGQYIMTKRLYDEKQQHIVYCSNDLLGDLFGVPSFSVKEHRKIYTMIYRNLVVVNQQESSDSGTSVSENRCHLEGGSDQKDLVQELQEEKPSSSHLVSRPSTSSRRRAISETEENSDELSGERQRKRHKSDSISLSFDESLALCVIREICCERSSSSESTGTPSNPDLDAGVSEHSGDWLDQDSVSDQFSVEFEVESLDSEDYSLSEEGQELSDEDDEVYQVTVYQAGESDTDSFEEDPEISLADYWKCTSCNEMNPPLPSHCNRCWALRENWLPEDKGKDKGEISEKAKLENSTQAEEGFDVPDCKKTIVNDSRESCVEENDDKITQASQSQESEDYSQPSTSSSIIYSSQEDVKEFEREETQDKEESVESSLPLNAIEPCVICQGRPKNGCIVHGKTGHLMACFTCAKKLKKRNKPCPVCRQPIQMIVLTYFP
GST-Mdm2 61-491 fragment: residues 61-491 of Q00987

Assays:
GST-Mdm2 61-491 fragment = GST-Mdm2 61-491 fragment (UniProt Q00987); assay: pull-down; 20 ug of recombinant GST-Mdm2 fusion proteins on glutathione beads incubated for 3 hours with 1 mg of nuclear extract of HEK293T cells transfected with Flag-Set7/9; washes in PBS; western blotting with Set7/9 antibody; only the target purified
[1] = target: GST-Mdm2 (full-length version) (UniProt Q00987); assay: as above

B1: Flag-Set7/9 (enzyme, UniProt Q8WTS6 1-366)
chain: MDSDDEMVEEAVEGHLDDDGLPHGFCTVTYSSTDRFEGNFVHGEKNGRGKFFFFDGSTLEGYYVDDALQGQGVYTYEDGGVLQGTYVDGELNGPAQEYDTDGRLIFKGQYKDNIRHGVCWIYYPDGGSLVGEVNEDGEMTGEKIAYVYPDERTALYGKFIDGEMIEGKLATLMSTEEGRPHFELMPGNSVYHFDKSTSSCISTNALLPDPYESERVYVAESLISSAGEGLFSKVAVGPNTVMSFYNGVRITHQEVDSRDWALNGNTLSLDEETVIDVPEPYNHVSKYCASLGHKANHSFTPNCIYDMFVHPRFGPIKCIRTLRAVEADEELTVAYGYDHSPPGKSGPEAPEWYQVELKAFQATQQK
B1 was tested, and the binding (GST-Mdm2 61-491 fragment) was “binds weakly” and the binding [1] was “binds”.
